The values that follow come from patent US20190374662A1 (published 2019).

Chains of the proteins cited; added tags and fusions are not shown. Lines headed by an entry give the natural chain unless they say otherwise; changes in a name come on top.
UniProt P06731: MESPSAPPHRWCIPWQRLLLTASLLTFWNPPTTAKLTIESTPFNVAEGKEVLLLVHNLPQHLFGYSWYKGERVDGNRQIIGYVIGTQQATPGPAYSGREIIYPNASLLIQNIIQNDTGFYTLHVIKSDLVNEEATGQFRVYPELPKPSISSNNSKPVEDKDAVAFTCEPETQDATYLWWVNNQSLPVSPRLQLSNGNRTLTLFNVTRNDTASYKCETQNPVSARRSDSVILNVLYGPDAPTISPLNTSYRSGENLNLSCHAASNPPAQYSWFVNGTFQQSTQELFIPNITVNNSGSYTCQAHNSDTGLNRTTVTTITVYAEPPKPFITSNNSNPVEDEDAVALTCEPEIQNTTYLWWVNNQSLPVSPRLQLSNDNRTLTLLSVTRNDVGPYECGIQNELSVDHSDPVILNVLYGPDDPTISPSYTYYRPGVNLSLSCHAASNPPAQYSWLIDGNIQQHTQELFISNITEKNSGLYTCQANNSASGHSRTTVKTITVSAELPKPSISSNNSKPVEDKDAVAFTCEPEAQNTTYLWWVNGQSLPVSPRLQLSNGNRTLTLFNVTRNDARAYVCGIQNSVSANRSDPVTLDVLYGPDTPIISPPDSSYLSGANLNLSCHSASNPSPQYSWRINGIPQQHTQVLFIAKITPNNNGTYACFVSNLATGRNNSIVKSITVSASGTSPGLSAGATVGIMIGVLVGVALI
UniProt P40199: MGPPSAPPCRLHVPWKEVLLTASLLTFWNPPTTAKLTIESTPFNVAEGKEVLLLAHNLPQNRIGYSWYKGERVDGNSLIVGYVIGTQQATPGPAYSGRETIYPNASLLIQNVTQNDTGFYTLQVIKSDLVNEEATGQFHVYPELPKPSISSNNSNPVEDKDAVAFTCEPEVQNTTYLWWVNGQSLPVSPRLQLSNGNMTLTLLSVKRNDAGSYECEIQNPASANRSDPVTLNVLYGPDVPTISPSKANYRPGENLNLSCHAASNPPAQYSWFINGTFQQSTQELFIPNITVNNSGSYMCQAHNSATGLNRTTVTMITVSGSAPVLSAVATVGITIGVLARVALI

These are yes or no findings as the source states them, for the method shown. Some results given as binding are weak or reduced against the parent protein; the word gives no strength.

Test [1] deals with CEACAM1 protein (CD66a), full length on cells (human) (UniProt P13688). As to the kind of experiment: flow cytometry, 50 ug/ml fusion protein, on 0.221/CEACAM1 cells.
In test [2] the target is CEACAM5 protein on 721.221 cells (human) (UniProt P06731). In words: flow cytometry on stably transfected 721.221 cells.
Test [3] deals with CEACAM1 protein (CD66a), full length on cells (human) (UniProt P13688). As to the kind of experiment: flow cytometry on stably transfected 721.221 cells.
Test [4] shares this target. As to the kind of experiment: flow cytometry on 0.221/CEACAM1 cells (FIG. 30a legend).
Test [5] concerns the target CCM6-SL43,44RQ (CEACAM6 with R and Q at positions 43 and 44 instead of S and L) (human) (UniProt P40199). As to the kind of experiment: flow cytometry on stably transfected 721.221 cells.

On to “CEACAM1-Ig fusion protein (extracellular portion of CEACAM1 fused to the Fc portion of human IgG1) (from UniProt P13688 35-142) (Fc fusion)”, for which the binding result in test [1], in test [2], in test [3] and in test [4] was “binds” in each case.

B1: CEACAM1-Ig fusion protein (extracellular portion of CEACAM1 fused to the Fc portion of human IgG1) (Fc fusion)
chain: QLTTESMPFNVAEGKEVLLLVHNLPQQLFGYSWYKGERVDGNRQIVGYAIGTQQATPGPANSGRETIYPNASLLIQNVTQNDTGFYTLQVIKSDLVNEEATGQFHVYP
notes: also called CCM1-Ig; soluble CEACAM1-Ig; not shown: Fc portion of human IgG1
As to B1, the binding result in test [5] is recorded as “binds”.
